Source: the supplement of paper PMC12819154, “High-throughput peptide-centric local stability assay extends protein–ligand identification to membrane proteins, tissues and bacteria” (Nature Structural & Molecular Biology, 2025)
The other results are listed elsewhere or left out. Small differences around the control level are noise.

Sequences of proteins named here, by UniProt entry; tags and fusion partners are left off. A change or cut given only in a name is not applied to a line headed by its entry.
UniProt Q9HCR9: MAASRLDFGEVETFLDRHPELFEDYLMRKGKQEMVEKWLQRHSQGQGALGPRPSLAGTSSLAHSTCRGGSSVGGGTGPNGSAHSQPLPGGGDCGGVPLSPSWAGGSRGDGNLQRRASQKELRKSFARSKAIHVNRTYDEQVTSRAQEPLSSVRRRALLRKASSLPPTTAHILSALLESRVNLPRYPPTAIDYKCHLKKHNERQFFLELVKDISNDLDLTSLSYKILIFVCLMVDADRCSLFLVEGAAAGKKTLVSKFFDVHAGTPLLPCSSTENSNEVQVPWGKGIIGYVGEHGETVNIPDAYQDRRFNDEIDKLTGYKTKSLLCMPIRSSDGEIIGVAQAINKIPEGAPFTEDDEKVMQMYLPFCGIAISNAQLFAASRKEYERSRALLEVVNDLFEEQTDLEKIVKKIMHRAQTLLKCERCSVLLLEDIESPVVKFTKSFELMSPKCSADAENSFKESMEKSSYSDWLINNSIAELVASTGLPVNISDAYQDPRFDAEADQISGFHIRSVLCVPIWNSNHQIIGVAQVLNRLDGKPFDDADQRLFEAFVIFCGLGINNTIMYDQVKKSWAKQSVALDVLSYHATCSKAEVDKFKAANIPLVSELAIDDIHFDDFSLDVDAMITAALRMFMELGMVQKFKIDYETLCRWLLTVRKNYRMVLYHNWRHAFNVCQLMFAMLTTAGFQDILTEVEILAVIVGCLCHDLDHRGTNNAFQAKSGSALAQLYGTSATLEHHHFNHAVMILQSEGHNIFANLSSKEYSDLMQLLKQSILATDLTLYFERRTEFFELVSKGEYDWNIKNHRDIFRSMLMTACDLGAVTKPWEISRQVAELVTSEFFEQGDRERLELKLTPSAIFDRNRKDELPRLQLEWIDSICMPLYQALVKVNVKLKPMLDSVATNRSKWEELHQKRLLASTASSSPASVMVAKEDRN
UniProt Q9NRW4: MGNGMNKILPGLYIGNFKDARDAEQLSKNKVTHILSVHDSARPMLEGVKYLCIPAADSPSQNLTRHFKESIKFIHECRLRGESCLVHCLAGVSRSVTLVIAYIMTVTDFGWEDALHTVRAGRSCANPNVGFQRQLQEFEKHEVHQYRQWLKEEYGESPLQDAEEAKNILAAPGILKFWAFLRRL
UniProt Q9NRG7: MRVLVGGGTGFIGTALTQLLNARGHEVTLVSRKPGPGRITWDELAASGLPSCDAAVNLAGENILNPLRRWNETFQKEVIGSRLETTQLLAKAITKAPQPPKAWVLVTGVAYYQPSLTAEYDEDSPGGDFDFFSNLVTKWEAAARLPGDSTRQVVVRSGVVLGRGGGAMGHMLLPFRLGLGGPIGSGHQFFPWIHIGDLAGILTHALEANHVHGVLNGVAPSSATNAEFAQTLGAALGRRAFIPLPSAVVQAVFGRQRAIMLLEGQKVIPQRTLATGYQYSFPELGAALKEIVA
UniProt Q9NRD5, whole entry: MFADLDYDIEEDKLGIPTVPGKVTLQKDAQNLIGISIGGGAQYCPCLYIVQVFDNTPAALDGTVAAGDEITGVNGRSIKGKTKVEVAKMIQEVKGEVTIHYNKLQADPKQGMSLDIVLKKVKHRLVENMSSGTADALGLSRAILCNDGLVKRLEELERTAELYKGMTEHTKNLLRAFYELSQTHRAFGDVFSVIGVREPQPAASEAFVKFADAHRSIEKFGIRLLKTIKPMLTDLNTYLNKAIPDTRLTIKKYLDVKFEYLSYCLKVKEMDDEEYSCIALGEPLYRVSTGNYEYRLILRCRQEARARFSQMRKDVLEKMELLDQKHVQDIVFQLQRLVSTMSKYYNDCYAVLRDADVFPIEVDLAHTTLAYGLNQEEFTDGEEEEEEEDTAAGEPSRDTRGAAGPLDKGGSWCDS
UniProt Q9NQG6: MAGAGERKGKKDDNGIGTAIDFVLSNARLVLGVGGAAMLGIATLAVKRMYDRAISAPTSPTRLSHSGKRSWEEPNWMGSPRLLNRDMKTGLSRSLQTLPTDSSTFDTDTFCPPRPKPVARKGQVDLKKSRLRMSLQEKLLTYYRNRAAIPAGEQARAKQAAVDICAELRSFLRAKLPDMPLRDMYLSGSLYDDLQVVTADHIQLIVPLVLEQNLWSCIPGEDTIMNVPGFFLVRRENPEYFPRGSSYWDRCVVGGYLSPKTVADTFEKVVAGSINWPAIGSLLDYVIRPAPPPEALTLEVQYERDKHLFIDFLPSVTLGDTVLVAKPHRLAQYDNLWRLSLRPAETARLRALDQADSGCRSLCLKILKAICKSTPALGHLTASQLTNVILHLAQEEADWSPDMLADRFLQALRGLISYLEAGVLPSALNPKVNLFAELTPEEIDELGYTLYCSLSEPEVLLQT
UniProt Q9NR19, whole entry: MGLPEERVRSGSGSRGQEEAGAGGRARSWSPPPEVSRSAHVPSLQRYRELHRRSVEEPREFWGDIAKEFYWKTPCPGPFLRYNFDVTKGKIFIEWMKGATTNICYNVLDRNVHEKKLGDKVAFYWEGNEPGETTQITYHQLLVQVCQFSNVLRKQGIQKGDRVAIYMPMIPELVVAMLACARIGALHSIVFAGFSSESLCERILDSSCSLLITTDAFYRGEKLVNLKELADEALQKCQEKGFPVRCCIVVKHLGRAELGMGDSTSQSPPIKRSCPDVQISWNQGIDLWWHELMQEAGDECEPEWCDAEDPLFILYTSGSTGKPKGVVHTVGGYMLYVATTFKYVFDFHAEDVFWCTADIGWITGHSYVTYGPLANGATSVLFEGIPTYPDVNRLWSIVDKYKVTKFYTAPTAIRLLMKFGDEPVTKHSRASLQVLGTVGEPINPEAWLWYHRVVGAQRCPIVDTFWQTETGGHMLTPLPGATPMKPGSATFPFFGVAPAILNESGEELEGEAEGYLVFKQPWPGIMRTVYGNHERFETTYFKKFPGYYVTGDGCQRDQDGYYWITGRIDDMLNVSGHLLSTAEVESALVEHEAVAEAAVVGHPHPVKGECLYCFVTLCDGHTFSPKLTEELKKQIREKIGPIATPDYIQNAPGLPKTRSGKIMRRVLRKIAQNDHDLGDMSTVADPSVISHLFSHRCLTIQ
UniProt Q9NV56, whole entry: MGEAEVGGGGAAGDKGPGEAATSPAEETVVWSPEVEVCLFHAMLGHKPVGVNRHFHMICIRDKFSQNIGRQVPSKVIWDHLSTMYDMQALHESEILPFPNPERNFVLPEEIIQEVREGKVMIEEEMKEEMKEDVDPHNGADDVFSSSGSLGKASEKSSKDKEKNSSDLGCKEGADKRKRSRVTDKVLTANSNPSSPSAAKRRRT

These targets were tested with Cc1nc(Nc2ncc(C(=O)Nc3c(C)cccc3Cl)s2)cc(N2CCN(CCO)CC2)n1 [dasatinib] (assay: log2 fold change of tryptic peptide abundance, ligand vs vehicle (limited proteolysis) (log2 ratio); higher = more trypsin-susceptible (destabilized)). Conditions: ligand concentration: 5 uM; sample: K562 cleared lysate.

Row | Target | log2 fold change
1 | MRPL17 (peptide sequence: QSQEASNHSSHTAQTPGI, peptide start residue: 158) (UniProt Q9NRX2) | 0.0466
2 | UniProt Q9HCR9 (peptide sequence: KGKQEMVEK, peptide start residue: 29) | 0.203
3 | DUSP22 (peptide sequence: SCANPNVGFQR, peptide start residue: 123) (UniProt Q9NRW4) | 0.158
4 | SDR39U1 (peptide sequence: WNETFQK, peptide start residue: 70) (UniProt Q9NRG7) | 0.347
5 | PICK1 (peptide sequence: VSTGNYEYR, peptide start residue: 287) (UniProt Q9NRD5) | -0.276
6 | UniProt Q9NQG6 (peptide sequence: KGQVDLKK, peptide start residue: 121) | -0.0916
7 | ACSS2 (peptide sequence: TPCPGPFLR, peptide start residue: 73) (UniProt Q9NR19) | -0.225
8 | UniProt Q9NV56 (peptide sequence: VTDKVLTANSNPSSPSAAKR, peptide start residue: 182) | -0.352
